Measured values: publication PMC9616737 (2022)
Results are given in words; binding and its absence hold for the method and conditions named. For some of these results: Binding seen in cells or lysates may run through a third protein. Some results given as binding are weak or reduced against the parent protein; the word gives no strength. For some of these results: Sequences can lack the tags named with a protein.

Protein sequences, listed by entry. Tags and fused reporters are not part of them. Lines headed by an entry give the natural chain unless they say otherwise; changes in a name come on top. Residues count along the entry.
UniProt P02462: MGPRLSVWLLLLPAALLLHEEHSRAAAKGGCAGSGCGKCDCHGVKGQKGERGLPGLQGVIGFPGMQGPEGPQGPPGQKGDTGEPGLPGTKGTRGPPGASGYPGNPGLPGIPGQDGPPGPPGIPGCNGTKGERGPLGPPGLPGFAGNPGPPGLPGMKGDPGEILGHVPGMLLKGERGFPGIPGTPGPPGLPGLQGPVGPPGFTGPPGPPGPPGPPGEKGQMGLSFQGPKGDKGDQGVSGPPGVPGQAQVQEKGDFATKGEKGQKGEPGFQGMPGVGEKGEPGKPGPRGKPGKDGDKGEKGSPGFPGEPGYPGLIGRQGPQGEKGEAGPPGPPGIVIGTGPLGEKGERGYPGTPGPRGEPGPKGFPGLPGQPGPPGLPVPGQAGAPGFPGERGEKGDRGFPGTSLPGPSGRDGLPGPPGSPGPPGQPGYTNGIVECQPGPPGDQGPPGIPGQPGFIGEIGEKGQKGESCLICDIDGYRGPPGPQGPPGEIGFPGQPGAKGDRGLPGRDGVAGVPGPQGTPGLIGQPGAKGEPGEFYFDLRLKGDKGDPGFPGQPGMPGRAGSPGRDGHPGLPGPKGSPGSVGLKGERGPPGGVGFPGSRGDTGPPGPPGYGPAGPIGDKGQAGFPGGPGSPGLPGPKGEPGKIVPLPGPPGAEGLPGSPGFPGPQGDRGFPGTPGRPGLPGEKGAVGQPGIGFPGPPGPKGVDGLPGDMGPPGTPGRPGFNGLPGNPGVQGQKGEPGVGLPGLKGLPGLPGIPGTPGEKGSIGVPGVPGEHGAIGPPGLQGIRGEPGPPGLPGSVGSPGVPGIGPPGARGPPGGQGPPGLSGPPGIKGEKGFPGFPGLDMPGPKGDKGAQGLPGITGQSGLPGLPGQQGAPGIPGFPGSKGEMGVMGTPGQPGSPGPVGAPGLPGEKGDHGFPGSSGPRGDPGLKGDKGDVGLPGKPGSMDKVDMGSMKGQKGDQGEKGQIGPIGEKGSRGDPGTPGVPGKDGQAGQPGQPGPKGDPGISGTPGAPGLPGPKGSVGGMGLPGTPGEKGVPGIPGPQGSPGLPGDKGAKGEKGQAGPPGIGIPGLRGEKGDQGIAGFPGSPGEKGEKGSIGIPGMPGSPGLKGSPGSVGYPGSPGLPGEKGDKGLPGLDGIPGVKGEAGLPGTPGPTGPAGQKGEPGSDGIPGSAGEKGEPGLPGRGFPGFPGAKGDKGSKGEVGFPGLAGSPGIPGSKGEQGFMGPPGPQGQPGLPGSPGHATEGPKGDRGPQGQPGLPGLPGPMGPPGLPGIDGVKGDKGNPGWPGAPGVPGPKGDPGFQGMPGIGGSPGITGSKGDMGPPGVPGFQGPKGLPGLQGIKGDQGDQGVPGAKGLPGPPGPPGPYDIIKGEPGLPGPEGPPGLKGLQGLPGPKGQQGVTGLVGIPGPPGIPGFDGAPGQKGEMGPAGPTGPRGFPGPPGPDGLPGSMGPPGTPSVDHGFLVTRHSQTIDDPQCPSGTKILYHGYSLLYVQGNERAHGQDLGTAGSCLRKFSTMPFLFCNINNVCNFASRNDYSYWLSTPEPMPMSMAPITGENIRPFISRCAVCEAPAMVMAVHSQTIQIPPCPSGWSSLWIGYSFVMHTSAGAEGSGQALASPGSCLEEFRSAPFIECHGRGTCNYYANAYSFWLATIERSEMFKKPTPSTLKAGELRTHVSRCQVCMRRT
UniProt P04004, residues 20-478: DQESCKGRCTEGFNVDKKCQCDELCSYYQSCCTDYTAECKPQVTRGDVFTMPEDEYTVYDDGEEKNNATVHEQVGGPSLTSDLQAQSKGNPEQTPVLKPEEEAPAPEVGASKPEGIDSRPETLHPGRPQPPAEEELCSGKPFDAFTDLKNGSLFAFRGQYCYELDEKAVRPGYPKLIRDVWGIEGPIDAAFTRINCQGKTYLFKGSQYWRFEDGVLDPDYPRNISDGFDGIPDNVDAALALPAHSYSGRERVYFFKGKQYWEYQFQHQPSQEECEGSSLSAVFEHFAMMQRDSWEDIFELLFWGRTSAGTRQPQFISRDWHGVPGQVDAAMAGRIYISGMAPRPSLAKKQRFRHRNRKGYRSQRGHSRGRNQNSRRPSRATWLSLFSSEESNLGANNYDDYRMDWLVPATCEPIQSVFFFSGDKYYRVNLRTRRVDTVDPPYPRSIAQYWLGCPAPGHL
UniProt P19137: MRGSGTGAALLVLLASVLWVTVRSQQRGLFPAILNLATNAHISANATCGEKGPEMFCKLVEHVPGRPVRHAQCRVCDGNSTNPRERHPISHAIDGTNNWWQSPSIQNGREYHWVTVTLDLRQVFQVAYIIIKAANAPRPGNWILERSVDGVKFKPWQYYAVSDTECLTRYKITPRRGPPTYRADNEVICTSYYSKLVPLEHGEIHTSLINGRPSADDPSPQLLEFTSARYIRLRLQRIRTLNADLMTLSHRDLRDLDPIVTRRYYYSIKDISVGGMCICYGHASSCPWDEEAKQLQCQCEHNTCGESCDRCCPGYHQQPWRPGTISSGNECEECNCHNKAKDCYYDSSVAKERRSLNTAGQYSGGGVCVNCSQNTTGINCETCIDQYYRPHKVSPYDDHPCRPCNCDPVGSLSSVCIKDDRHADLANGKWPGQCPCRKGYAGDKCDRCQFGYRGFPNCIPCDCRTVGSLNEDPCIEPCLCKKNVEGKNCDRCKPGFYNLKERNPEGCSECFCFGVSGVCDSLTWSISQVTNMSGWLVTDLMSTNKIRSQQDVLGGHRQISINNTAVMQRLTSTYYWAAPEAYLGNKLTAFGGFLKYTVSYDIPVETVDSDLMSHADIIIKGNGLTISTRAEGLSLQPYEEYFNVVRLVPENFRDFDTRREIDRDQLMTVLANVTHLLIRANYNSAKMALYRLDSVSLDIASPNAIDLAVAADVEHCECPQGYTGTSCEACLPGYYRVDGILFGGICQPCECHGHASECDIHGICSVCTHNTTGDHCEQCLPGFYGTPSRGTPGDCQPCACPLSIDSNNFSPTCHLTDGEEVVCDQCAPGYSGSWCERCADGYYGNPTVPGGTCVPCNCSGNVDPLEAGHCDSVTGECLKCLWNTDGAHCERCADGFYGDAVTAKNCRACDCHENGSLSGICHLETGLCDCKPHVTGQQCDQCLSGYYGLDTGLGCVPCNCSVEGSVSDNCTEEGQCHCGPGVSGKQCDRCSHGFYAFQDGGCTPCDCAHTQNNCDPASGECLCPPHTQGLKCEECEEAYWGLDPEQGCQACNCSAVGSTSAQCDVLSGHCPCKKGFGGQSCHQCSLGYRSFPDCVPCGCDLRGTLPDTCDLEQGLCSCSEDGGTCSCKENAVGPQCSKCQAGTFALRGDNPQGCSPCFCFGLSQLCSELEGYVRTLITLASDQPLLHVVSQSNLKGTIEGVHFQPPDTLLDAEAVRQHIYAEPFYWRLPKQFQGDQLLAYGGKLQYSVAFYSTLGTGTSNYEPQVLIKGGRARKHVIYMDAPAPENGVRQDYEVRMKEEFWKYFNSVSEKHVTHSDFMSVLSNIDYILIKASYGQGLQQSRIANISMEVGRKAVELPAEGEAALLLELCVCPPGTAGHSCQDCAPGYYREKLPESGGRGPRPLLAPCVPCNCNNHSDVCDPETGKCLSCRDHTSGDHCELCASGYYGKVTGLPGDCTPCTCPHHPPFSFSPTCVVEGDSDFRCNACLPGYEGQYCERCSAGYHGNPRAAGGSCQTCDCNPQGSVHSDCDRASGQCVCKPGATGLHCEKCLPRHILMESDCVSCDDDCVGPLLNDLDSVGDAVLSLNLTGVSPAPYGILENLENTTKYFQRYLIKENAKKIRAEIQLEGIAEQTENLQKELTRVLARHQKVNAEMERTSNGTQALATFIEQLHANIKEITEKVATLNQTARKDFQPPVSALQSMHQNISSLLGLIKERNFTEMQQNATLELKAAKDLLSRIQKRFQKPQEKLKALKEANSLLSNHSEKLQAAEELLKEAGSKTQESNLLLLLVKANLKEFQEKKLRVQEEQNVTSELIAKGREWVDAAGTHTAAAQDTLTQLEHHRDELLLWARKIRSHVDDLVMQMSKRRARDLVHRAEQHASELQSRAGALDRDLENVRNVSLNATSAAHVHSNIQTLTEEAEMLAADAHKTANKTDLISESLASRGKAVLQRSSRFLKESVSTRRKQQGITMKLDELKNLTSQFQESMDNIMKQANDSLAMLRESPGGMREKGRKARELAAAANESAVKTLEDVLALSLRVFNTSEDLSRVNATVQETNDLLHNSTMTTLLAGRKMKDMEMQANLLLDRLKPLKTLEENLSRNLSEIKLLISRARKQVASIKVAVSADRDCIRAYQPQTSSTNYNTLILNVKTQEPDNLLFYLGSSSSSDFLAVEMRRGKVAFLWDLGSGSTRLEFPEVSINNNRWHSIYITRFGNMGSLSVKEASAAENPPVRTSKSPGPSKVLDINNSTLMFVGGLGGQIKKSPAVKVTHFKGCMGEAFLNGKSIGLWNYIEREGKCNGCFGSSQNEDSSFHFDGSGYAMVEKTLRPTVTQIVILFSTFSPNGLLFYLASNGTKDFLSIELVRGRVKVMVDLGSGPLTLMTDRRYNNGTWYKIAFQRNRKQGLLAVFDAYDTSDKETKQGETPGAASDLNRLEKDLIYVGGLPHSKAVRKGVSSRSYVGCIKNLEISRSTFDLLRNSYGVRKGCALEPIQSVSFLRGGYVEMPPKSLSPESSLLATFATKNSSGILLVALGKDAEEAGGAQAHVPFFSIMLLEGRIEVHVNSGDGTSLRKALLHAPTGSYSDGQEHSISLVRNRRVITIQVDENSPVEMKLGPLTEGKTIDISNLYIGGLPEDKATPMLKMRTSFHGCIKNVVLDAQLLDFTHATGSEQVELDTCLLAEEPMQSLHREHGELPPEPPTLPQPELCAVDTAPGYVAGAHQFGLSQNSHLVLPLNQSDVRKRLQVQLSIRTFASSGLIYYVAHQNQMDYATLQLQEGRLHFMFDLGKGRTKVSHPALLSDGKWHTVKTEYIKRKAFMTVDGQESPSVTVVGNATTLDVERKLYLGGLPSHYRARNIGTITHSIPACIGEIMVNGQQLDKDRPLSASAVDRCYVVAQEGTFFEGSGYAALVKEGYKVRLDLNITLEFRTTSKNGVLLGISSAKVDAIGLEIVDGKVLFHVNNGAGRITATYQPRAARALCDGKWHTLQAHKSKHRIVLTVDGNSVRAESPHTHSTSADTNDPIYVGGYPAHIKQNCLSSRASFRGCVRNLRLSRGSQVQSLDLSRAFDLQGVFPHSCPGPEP

T1: embigin (mouse, endogenous in sebaceous gland cells) (mouse (endogenous in tail skin)) (UniProt P21995)
T1 sequence: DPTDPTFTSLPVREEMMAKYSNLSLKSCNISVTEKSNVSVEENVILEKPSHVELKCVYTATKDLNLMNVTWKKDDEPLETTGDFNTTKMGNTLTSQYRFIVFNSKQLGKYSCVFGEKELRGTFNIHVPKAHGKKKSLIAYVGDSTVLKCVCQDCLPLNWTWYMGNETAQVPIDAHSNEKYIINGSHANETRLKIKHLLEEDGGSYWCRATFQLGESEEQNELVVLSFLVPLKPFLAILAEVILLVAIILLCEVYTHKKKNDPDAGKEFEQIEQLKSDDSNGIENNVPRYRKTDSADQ


What was measured:
collagen IV = collagen IV (UniProt P02462); assay: solid-phase binding assay (DELFIA); ligand coated on the plate (5 μg/cm^2, overnight at +4°C), blocked with Delfia Diluent; soluble GST-tagged receptor in Delfia Assay Buffer ± 2mM MgCl2 or MnCl2 or 5mM EDTA, 1h at RT; detected with Europium-labeled anti-GST antibody; both purified
vitronectin = vitronectin (UniProt P04004); assay: as above
laminin 1 = laminin 1 (UniProt P19137); assay: as above
[1] = biological target: T1, embigin (mouse, endogenous in sebaceous gland cells) (mouse (endogenous in tail skin)); assay: proximity ligation; Duolink PLA on 12 μm cryosections of mouse tail skin fixed in 4% PFA; PLUS and MINUS probes cross-linked directly to the EMB (G7.43.1) and MCT1 (AB1286-1) antibodies

| binding (collagen IV) | binding (vitronectin) | binding (laminin 1) | binding [1] | Binder |
| --- | --- | --- | --- | --- |
| no binding (tested: 200 nM) | no binding (tested: 200 nM) | no binding (tested: 200 nM) |  | recombinant embigin extracellular domain GST-fusion protein (EMB-GST) (domain or fragment) DGSAPDSPFTSPPLREEIMANNFSLESHNISLTEHSSMPVEKNITLERPSNVNLTCQFTTSGDLNAVNVTWKKDGEQLENNYLVSATGSTLYTQYRFTIINSKQMGSYSCFFREEKEQRGTFNFKVPELHGKNKPLISYVGDSTVLTCKCQNCFPLNWTWYSSNGSVKVPVGVQMNKYVINGTYANETKLKITQLLEEDGESYWCRALFQLGESEEHIELVVLSYLVP |
|  |  |  | binds | monocarboxylate transporter 1 (MCT1; mouse, endogenous in sebaceous gland cells) (protein, UniProt P53986 1-493) MPPAIGGPVGYTPPDGGWGWAVLVGAFISIGFSYAFPKSITVFFKEIEVIFSATTSEVSWISSIMLAVMYAGGPISSILVNKYGSRPVMIAGGCLSGCGLIAASFCNTVQELYLCIGVIGGLGLAFNLNPALTMIGKYFYKKRPLANGLAMAGSPVFLSTLAPLNQAFFDIFDWRGSFLILGGLLLNCCVAGSLMRPIGPEQVKLEKLKSKESLQEAGKSDANTDLIGGSPKGEKLSVFQTINKFLDLSLFTHRGFLLYLSGNVVMFFGLFTPLVFLSSYGKSKDFSSEKSAFLLSILAFVDMVARPSMGLAANTKWIRPRIQYFFAASVVANGVCHLLAPLSTTYVGFCVYAGVFGFAFGWLSSVLFETLMDLIGPQRFSSAVGLVTIVECCPVLLGPPLLGRLNDMYGDYKYTYWACGVILIIAGIYLFIGMGINYRLLAKEQKAEEKQKREGKEDEASTDVDEKPKETMKAAQSPQQHSSGDPTEEESPV |
